Patent US20090155785A1, “REAL-TIME COLORIMETRIC SCREENING INHIBITORS OF ENDONUCLEASE WITH GOLD NANOPARTICLE SUBSTRATE” (NORTHWESTERN UNIVERSITY, priority 2007, published 2009)
At least one structure is not confirmed: it was looked up by name or label, or the drawing left a doubt.

Tests used:
duplex DNA = assay: Melting temperature of duplex DNA (without nanoparticles) in the presence of DNA binding molecule; conditions: DNA duplex 2.0 μM, sodium phosphate buffer 10 mM pH 7.0, NaCl 100 mM, DNA binding molecule 5.0 μM, control 61.0
DNase I [1] = assay: Colorimetric DNase I inhibition assay, ligated gold nanoparticle aggregates with linker oligonucleotide (Example 2); assay type: biochemical; conditions: inhibitor 1 μM, DNase I 15 units/ml, extinction at 520 nm, control 9.5 min
Experimental: A typical screening experiment was slated by adding the DNase I to solutions of the gold nanoparticle aggregates in the presence of one of the DNA binding molecules, amsacrine (AMSA), anthrquinone-2-carboxylic acid (AQ2A), 9-aminoacridine (9-AA), ellipticine (EIPT), daunorubicin (DNR), ethidium bromide (EB) and 4′,6-diamidedino-2-phenylindole (DAPI) (1 μM), respectively. The color changes of the solutions were monitored at 520 nm by UV-vis spectrometry over time (sample scan rate=2 min^−1). The inhibitors can decrease DNase I activity and increase the hydrolysis time and the corresponding time required for a color change in the solution. […]
High-throughput screening is widely used for the identification of hit compounds from combinatorial libraries. […] The trend of potencies of inhibitors was determined to be DAPI>EB>DNR>9-AA, EIPT, and AQ2A>AMSA, which is consistent with the control experiments involving serial analysis of each inhibitors with nanoparticle-free duplex DNA. […]
The prepared gold nanoparticle aggregate was washed (3 times) with DNase I buffer (10 mM sodium phosphate buffer pH 7.0, 0.25 mM MgCl2). The assay was initiated by adding DNase I (10-50 units/ml) and the hydrolysis kinetics were monitored by a UV-vis spectrum at the extinction of 520 nm with stirring at room temperature.

DNase I [2] = assay: Colorimetric DNase I inhibition assay, hybridized gold nanoparticle aggregates without linker oligonucleotide (Example 1); assay type: biochemical; conditions: inhibitor 1 μM, DNase I 15 units/ml, extinction at 520 nm, room temperature; control 6.8 min
Experimental: In addition to screening enzyme activity, one can easily use the assay to evaluate the efficiency of inhibitors of DNase I. In a typical screening experiment, DNase I (15 units/ml) was added to solutions of the DNA-linked gold nanoparticle aggregates in the presence of one of the following DNA binding molecules: amsacrine (AMSA), anthraquinone-2-carboxylic acid (AQ2A), 9-aminoacridine (9-AA), ellipticine (EIPT), daunorubicin (DNR), ethidium bromide (EB) and 4′,6-diamidedino-2-phenylindole (DAPI) (1 μM), respectively. […] Extinction was monitored at 520 nm as a function of time (sample scan rate=5 min^−), and the color of the solution was followed with the naked eye. […] The trend is determined based on TH, which is consistent with the relative binding affinities of the inhibitors to DNA, as determined by measuring the melting temperature of the duplex DNA in the presence of each DNA-binding molecule (FIG. 6 and Table 1 below).
The relative binding affinities of the inhibitors to DNA are consistent with the hydrolysis time (TH) of the aggregates by DNase I in the presence of a specific inhibitor. TH is determined by measuring the extinction at 520 nm and determining when half of the particles composing the aggregates have been released. […]

SMILES: COc1cc(NS(C)(=O)=O)ccc1Nc1c2ccccc2nc2ccccc12 [AMSA, amsacrine]
- Tm (melting temperature of duplex DNA in the presence of endonuclease inhibitor) (duplex DNA; Table 1): 61.5 °C
- Tm (melting temperature of duplex DNA in the presence of endonuclease inhibitor) (duplex DNA; Table 2, at 260 nm): 61.5 °C
- t (releasing time; time required to hydrolyze 50% of the aggregates) (DNase I [1]): 11.5 min
- TH (time at which 50% of the aggregate is hydrolyzed by DNase I) (DNase I [2]): 11.0 min
